The other results are listed elsewhere or left out.
These sequences were tested against OsWRKY34 (Oryza sativa, UniProt Q0JBA9 1-250) (assay: protein-binding microarray (RPBM); PBS, 2% BSA, 51.3 ng/ul salmon testes DNA, 50 uM zinc acetate, 200 nM TF, 25 C, 1 h; high values mean tight binding). Settings: protein: recombinant; tags: N-terminal polyhistidine and DsRed monomer fusion (pET32a); label: CyDye5-dUTP incorporated in the synthesized complementary strand; 3' TTTTT single-stranded linker to array surface; dsDNA, one strand shown.
How it was run: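 Transcription factors were each fused at the N-terminus to a polyhistidine tag plus DsRed and expressed in E. coli BL21-CodonPlus before Ni–NTA purification. Binding to a double-stranded custom Agilent array was carried out with 200 nM protein at 25 °C for 1 h in PBS, 2% BSA, salmon testes DNA and 50 µM zinc acetate. The binding signal is per-feature fluorescence intensity, in arbitrary units, on an Axon 4000B scanner.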

Chains of the proteins cited; added tags and fusions are not shown.
UniProt Q0JBA9, entry or part of it: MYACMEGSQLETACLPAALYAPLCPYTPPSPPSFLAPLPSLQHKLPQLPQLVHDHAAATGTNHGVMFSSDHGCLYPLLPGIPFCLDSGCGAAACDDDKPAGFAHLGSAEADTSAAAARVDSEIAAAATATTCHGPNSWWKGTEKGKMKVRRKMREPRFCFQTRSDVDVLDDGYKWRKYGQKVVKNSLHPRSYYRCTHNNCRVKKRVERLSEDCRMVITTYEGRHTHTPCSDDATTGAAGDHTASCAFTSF

Sequence	binding signal
TGCCACCCATATCCCACGCCCATCACCGAATACGAATCTGCGGAGTCACCTAGTGCAG	9090 fluorescence intensity (a.u.)
GGAAATTCGCAATAAATTTTTTGGTACCTCTTTCTCCATCCGGAGTCACCTAGTGCAG	8520 fluorescence intensity (a.u.)
CACTGTCTATCCACCCAACCAGCCACTGACTGAAGCTTCACGGAGTCACCTAGTGCAG	8820 fluorescence intensity (a.u.)
GCGGATTAATTACTACTGGGCTGGCATTCTGATCACTTTGCGGAGTCACCTAGTGCAG	8850 fluorescence intensity (a.u.)
ACTGGTTGACTGACTTGTAATAACGTCTGCCATCTCTCTCCGGAGTCACCTAGTGCAG	10400 fluorescence intensity (a.u.)
CGCTCCAGCCAAACGCATCATCTCAGCCGTCGCCCCTCACCGGAGTCACCTAGTGCAG	10000 fluorescence intensity (a.u.)
TCCGTATTTGATTCCAAGTTTTCGACTACTAGTTTTCTCACGGAGTCACCTAGTGCAG	9010 fluorescence intensity (a.u.)
TTCTCCACCTCTCTTGCTCTCTCGCCCTCTTCACCAAGAACGGAGTCACCTAGTGCAG	8660 fluorescence intensity (a.u.)
GATCTCCGACCGCCGTCTAATGCCGCCGCCGCCACCTCCGCGGAGTCACCTAGTGCAG	11600 fluorescence intensity (a.u.)
TGTTGTTGGTTCCCTCTCCACGGCGACCTCATTGCCTCTCCGGAGTCACCTAGTGCAG	8200 fluorescence intensity (a.u.)
AGAGTACCAGCAACCGCACATCACCGGCACCGCACATCACCGGAGTCACCTAGTGCAG	8140 fluorescence intensity (a.u.)
GTAGGCCTTGTACCGTACGTTGCTGTTCCATTTTCCATACCGGAGTCACCTAGTGCAG	9220 fluorescence intensity (a.u.)
CAACCCAACGCCGGTCCGTCGCCCACCGCCCTCCGCGCGCCGGAGTCACCTAGTGCAG	9150 fluorescence intensity (a.u.)
CGCGCTGTTTTTATTGACCATTTTTTGTGGGTTTTAGCGACGGAGTCACCTAGTGCAG	8650 fluorescence intensity (a.u.)
ACCCGATCCATTGCACATTTGCACTCAACTGTTTCGCCCTCGGAGTCACCTAGTGCAG	9530 fluorescence intensity (a.u.)
CGTCACCCACACGCACGCACGCACGTACGGCGCGGACATGCGGAGTCACCTAGTGCAG	12300 fluorescence intensity (a.u.)
CCCCACACTGCCCCACACATCCATCGCCGGATTCGCCTCCCGGAGTCACCTAGTGCAG	8160 fluorescence intensity (a.u.)
CCGTCCGCTGTTTCGTGATATTTTCCAATTTTCCACCTGTCGGAGTCACCTAGTGCAG	10000 fluorescence intensity (a.u.)
GGTAGAGGCGGCAAATTCATAAGAAGGTTTTTTGTTTTGACGGAGTCACCTAGTGCAG	8100 fluorescence intensity (a.u.)
TTTGCACTATTCACGTTCAACGTTTGACCGTTCGTCTTATCGGAGTCACCTAGTGCAG	9300 fluorescence intensity (a.u.)
CCCTCCGTATTTTAATGTATGACGCCGTTGACTTTTTGACCGGAGTCACCTAGTGCAG	26800 fluorescence intensity (a.u.)

Sequence	binding signal
CCAACTCGCAGTCGTTTGCCAACACCGGCGTGCTTGTCACCGGAGTCACCTAGTGCAG	8040 fluorescence intensity (a.u.)
AAATATACAACTCTTGGACGCCCTTACATCTCTCCATTGTCGGAGTCACCTAGTGCAG	8230 fluorescence intensity (a.u.)
CTCCGTCGCGTTTTTCATCCACTGTCCATTAATTTCCTAACGGAGTCACCTAGTGCAG	12100 fluorescence intensity (a.u.)
GCTCCGACAGTGGATCCTTGTCCATGGTGTTGGCGAGGGGCGGAGTCACCTAGTGCAG	8320 fluorescence intensity (a.u.)
ATAATTGCCATGCATGCACGTTGTCGTTCGTCGACCTTCCCGGAGTCACCTAGTGCAG	8690 fluorescence intensity (a.u.)
TGAGTATAGGGTTTTTTTTGTAACATATGCAGCCAGGTGCCGGAGTCACCTAGTGCAG	8890 fluorescence intensity (a.u.)
ACGGAACCACACACGTGGATTTTTCATTTTTCCTTTTTTCCGGAGTCACCTAGTGCAG	8820 fluorescence intensity (a.u.)
GCGGAGGGGCGCATGGTGCTGGTGGCACACCCGACGGGGCCGGAGTCACCTAGTGCAG	8450 fluorescence intensity (a.u.)
CCTCATTTGCATTTTTCAGTTCTGGAATGCCCCTTGATTTCGGAGTCACCTAGTGCAG	10800 fluorescence intensity (a.u.)
ATTAGTTTTTTTGTTTTGTGTGCGTTGAAAATATCTCTCCCGGAGTCACCTAGTGCAG	8680 fluorescence intensity (a.u.)
GTCTGCGTTCGATTTCGCACATGCCCGCACCGCACTATCCCGGAGTCACCTAGTGCAG	9910 fluorescence intensity (a.u.)
ATCGATCGGAGCCGTCGGATCAACTTCATCTGTTGGTTTTCGGAGTCACCTAGTGCAG	8550 fluorescence intensity (a.u.)
TCTTTCGCTCTATGCTATATTTATCAATCTACATCGTTATCGGAGTCACCTAGTGCAG	11700 fluorescence intensity (a.u.)
GAACACCTCGCGAGCTTCCTCTCCTCCTCTGCATCGCGATCGGAGTCACCTAGTGCAG	8290 fluorescence intensity (a.u.)
GAAAGGAGCTGTGTATGGGATGTTTTCGTTGGTCACGAATCGGAGTCACCTAGTGCAG	8170 fluorescence intensity (a.u.)
TTCATACCATCTTATTTTGTTCCCTGCTTATTTCATTTTCCGGAGTCACCTAGTGCAG	14500 fluorescence intensity (a.u.)
AGAACAATTTTCTCGTGCATTTTCATTAGCGTTTCCCAGACGGAGTCACCTAGTGCAG	8320 fluorescence intensity (a.u.)
CTTGCACGTACTACTGTTTGTCGTCTCATTTCTGTATTTGCGGAGTCACCTAGTGCAG	8440 fluorescence intensity (a.u.)
AACAAGCTCTTTGAAACCATGGAAGCTAGCCTTTGTTTGCCGGAGTCACCTAGTGCAG	8500 fluorescence intensity (a.u.)
CATGGCGTCTCCCCTGACCACCACGCCTCCACCACCTCCGCGGAGTCACCTAGTGCAG	8710 fluorescence intensity (a.u.)
TTGACGATTTCTTTTTTTCTTTTTTTGAGGTTCTTCTTATCGGAGTCACCTAGTGCAG	9680 fluorescence intensity (a.u.)

Retrieved one by one from the entries so far:
Sequence	binding signal
CCCCACACTGCCCCACACATCCATCGCCGGATTCGCCTCCCGGAGTCACCTAGTGCAG	8160 fluorescence intensity (a.u.)
ATAATTGCCATGCATGCACGTTGTCGTTCGTCGACCTTCCCGGAGTCACCTAGTGCAG	8690 fluorescence intensity (a.u.)
GTCTGCGTTCGATTTCGCACATGCCCGCACCGCACTATCCCGGAGTCACCTAGTGCAG	9910 fluorescence intensity (a.u.)

Next part

Sequence	binding signal
AATCACAGCACCATCGATTTGATGCCAACTCACATGTTACCGGAGTCACCTAGTGCAG	8980 fluorescence intensity (a.u.)
CCGTCGCCGGCCGCAACCACCACCACCACTCGCCGTCGCCCGGAGTCACCTAGTGCAG	13500 fluorescence intensity (a.u.)
AGATGTGCAATGTTTTTTCTTTGATGTTCCACACAACAGGCGGAGTCACCTAGTGCAG	9290 fluorescence intensity (a.u.)
TGTCTGTCTCACATATTTTCTTGGTTCCTATGCTTAAACTCGGAGTCACCTAGTGCAG	11100 fluorescence intensity (a.u.)
CTCGCCTCCGAATCCTGCGTCCTCTGGTCGGCGGCGCCGCCGGAGTCACCTAGTGCAG	9960 fluorescence intensity (a.u.)
CTAGCTTCGCCATCCACATTCTTCTTGCTTCTTGCTCCTCCGGAGTCACCTAGTGCAG	12700 fluorescence intensity (a.u.)
CGGTCCTCCTCGTCCGTGTTGTCGAGGCGGGGTAGAGGGGCGGAGTCACCTAGTGCAG	10900 fluorescence intensity (a.u.)
TGTATCATGCTCAGTTATCATTAGCTAGTTCATCATGTCACGGAGTCACCTAGTGCAG	8460 fluorescence intensity (a.u.)
TTCGCTTCTTCGTTTCTCGCATGCACACTTTTCGAACTAGCGGAGTCACCTAGTGCAG	11600 fluorescence intensity (a.u.)
TCCTTATTTTCTAATTCCGATTTCGAATTTCCATTATTTCCGGAGTCACCTAGTGCAG	11700 fluorescence intensity (a.u.)
CCCTACTATTCCCAGATTCCCACCGGCCTCCGAGGCTCCGCGGAGTCACCTAGTGCAG	8030 fluorescence intensity (a.u.)
CTCTCGTCGTCTTCATCTCTCTCCCCTCTCCTCCCTCCTCCGGAGTCACCTAGTGCAG	8860 fluorescence intensity (a.u.)
CCCGTCCCAACTTGGTCACTCGTCTTCTCGCCCGAAAATCCGGAGTCACCTAGTGCAG	12700 fluorescence intensity (a.u.)
GACAACTTTTTGTAACCATCCTTCTTTATTGCTCAGTTATCGGAGTCACCTAGTGCAG	9150 fluorescence intensity (a.u.)
GGTGACTCAGTTTATACCAGATTAATGATCCATTACCTCTCGGAGTCACCTAGTGCAG	9250 fluorescence intensity (a.u.)
CTTCCATTTATTTCCAGTTATTCACATATGTCGTGCTAAGCGGAGTCACCTAGTGCAG	8360 fluorescence intensity (a.u.)
CCCACCTGTCATCCTCACCCCACCCCATGCACCGAGTCCACGGAGTCACCTAGTGCAG	9650 fluorescence intensity (a.u.)
CTCCCGTGCGTTGTGTTGTGCGTGCCAGATTGGTAGTAGTCGGAGTCACCTAGTGCAG	9520 fluorescence intensity (a.u.)
GGTGCAGATATGTTCAACTTCAGAGTTTTGTTTATGTTACCGGAGTCACCTAGTGCAG	9660 fluorescence intensity (a.u.)
AATGTAAGTCATTCTAGCATTTCTCATTAACATCAATATGCGGAGTCACCTAGTGCAG	8430 fluorescence intensity (a.u.)
GCTTATGTGTCAATTCATTTGTGTTAGGTGCTGAGATTTTCGGAGTCACCTAGTGCAG	9050 fluorescence intensity (a.u.)

Sequence	binding signal
ATCATGACATATTAAACTATTAACACAACTTATCTATTATCGGAGTCACCTAGTGCAG	8850 fluorescence intensity (a.u.)
AACCCATTTTTACTTATCATATTTGGTATACTAGCCAAGTCGGAGTCACCTAGTGCAG	9430 fluorescence intensity (a.u.)
CCTTCCCATGCTGCTGTGATGTGTCATACGCCGCCGCCACCGGAGTCACCTAGTGCAG	9920 fluorescence intensity (a.u.)
ATTTCTTGAACCATACATTAATAAGATGCATATTATACCTCGGAGTCACCTAGTGCAG	8400 fluorescence intensity (a.u.)
ATTCATTTTGTAAGCCTAATTTCCTGCACAATTTATTACACGGAGTCACCTAGTGCAG	8280 fluorescence intensity (a.u.)
TTAATGAGTTCCTTTTGTTACCATTTGTACAGTTTGACCACGGAGTCACCTAGTGCAG	10100 fluorescence intensity (a.u.)
GGAGCATGTTCAACCATTCATTGTTTTCTCTATTGCATAACGGAGTCACCTAGTGCAG	8070 fluorescence intensity (a.u.)
TTCCATACGCTGACCTTCTCATTTACCTCTTAGCTTATTACGGAGTCACCTAGTGCAG	8230 fluorescence intensity (a.u.)
CTTTGGTTGCTGTCCCAACACGATAGCCCCTTGAGTGCTACGGAGTCACCTAGTGCAG	8140 fluorescence intensity (a.u.)
TCCTGATATGTACCTTCCGATTTTATCTTTAATTTCTTTTCGGAGTCACCTAGTGCAG	12000 fluorescence intensity (a.u.)
AAGTTATCTCATATATTTGAATTTCATTTTATTTTGTTACCGGAGTCACCTAGTGCAG	8140 fluorescence intensity (a.u.)
GTTCATTCGTACGTTAGTTGTAAGTATTCTATTTGCTGCACGGAGTCACCTAGTGCAG	9640 fluorescence intensity (a.u.)
TTACTTATACCACAGCTCGAATCCGTTCCAAACCAGGCCACGGAGTCACCTAGTGCAG	9230 fluorescence intensity (a.u.)
CCGTGTCGTTGCCGGTGCGCATATGGCAGTTGCCGGTCTCCGGAGTCACCTAGTGCAG	9810 fluorescence intensity (a.u.)
CTTTTTACACATATTTGACCGTTCATCTTATTCAAAAACTCGGAGTCACCTAGTGCAG	8160 fluorescence intensity (a.u.)
CTCATTCCTCATTATTTCTATATTCCCTCACACTATTTATCGGAGTCACCTAGTGCAG	8580 fluorescence intensity (a.u.)
CTGGTTTTACCGTTCATCTTTTTACCTAGATAACTTCTTGCGGAGTCACCTAGTGCAG	8330 fluorescence intensity (a.u.)
TTCTTTTACACGGGTCCAACTTATTCATACATGTCACTGCCGGAGTCACCTAGTGCAG	8960 fluorescence intensity (a.u.)
TTTCCTCTGGATCCTGGCATTTTGCATTGTCGTTTGCCGTCGGAGTCACCTAGTGCAG	8630 fluorescence intensity (a.u.)
CCTACTTTTTCAGTTTTGTTTATTTGATCCCGTTTTTTAACGGAGTCACCTAGTGCAG	8250 fluorescence intensity (a.u.)
GGTTCTCGTGCTATTGTTCTCTACTGTTTTTCCTAAATTTCGGAGTCACCTAGTGCAG	8450 fluorescence intensity (a.u.)

Reformatted in markdown: part of the list above

| Sequence | binding signal |
| --- | --- |
| ACGGAACCACACACGTGGATTTTTCATTTTTCCTTTTTTCCGGAGTCACCTAGTGCAG | 8820 fluorescence intensity (a.u.) |
| GCGGAGGGGCGCATGGTGCTGGTGGCACACCCGACGGGGCCGGAGTCACCTAGTGCAG | 8450 fluorescence intensity (a.u.) |
| CCTCATTTGCATTTTTCAGTTCTGGAATGCCCCTTGATTTCGGAGTCACCTAGTGCAG | 10800 fluorescence intensity (a.u.) |
